The values that follow come from patent publication US20140322216A1.

Chains of the proteins cited; added tags and fusions are not shown. Residues count along the entry.
UniProt P51654, residues 25-559: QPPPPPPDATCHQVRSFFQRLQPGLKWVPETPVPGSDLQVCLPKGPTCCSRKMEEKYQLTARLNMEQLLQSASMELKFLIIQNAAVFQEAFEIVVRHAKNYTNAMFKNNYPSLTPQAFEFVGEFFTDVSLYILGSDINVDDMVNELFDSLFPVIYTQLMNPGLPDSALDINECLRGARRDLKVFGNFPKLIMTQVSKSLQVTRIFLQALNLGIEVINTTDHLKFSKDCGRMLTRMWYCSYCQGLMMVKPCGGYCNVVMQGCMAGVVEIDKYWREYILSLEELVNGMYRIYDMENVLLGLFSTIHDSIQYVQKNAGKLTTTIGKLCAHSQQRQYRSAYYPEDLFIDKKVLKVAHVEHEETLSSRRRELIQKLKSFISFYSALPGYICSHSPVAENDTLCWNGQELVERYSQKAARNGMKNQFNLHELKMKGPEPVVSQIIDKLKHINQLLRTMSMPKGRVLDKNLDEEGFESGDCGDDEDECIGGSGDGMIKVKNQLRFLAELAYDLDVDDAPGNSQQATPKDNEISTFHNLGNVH

The target in test [1] is full-length glycosylated recombinant hGPC3 protein expressed in a murine myeloma cell line (human) (UniProt P51654). Kind of test: ELISA on rhGPC3 precoated at 1 ug/ml, scFv titrated. (In an ELISA, binding on a coated surface is turned into a signal by an enzyme label.)
Test [2] has as its target GST protein [GST: P08515]. The experiment in a line: dot blot, 10 ng GST per spot, scFv detected with anti-V5 mAb and IR680 anti-mouse.
For test [3], the target named is full-length glycosylated recombinant hGPC3 protein expressed in a murine myeloma cell line (human) (UniProt P51654). Kind of test: single-point ELISA of scFv on full length hGPC3 protein expressed by mammalian cells.
For test [4] the target is unchanged. Kind of test: dot blot, 10 ng antigen per spot, scFv detected with anti-V5 mAb and IR680 anti-mouse.

No constants are given. Whether binding was seen depends on the method and setting. Some binding calls cover weakened binding; strength is not graded here.

B1: scFv 3D8 (scFv, V domains shown)
VH: QVQLVQSGGGLAQPGGSLRLSCAASGSSFSTFVLSWVRQTPGKGLQWVSTISGSGTSTYYADSVKGRFTVSRDNAKNTQYLQMNSLRAEDTAIYYCARHKSFGVQWLWGQGALVVRLL
VL: VHIVMTQSPLSLPVTLGQPASISCWSSQSLVYGDGNTYLNWFQQRPGQSPRRLIYKVSNRDSGVPDRFSGSGSGTDFTLKISRVEAEDVGVYYCMQGTHWPPGTFGGGTKLEIK
For B1, the binding entry in test [1] is listed as “binds”; in test [2], “no binding”; in test [3] it was “binds”; in test [4], “binds”.
